Measured values reported in publication PMC10075967.
No constants are given. Whether binding was seen depends on the method and setting. Binding seen in cells or lysates may run through a third protein. Some results given as binding are weak or reduced against the parent protein; the word gives no strength.

Sequences of proteins named here, by UniProt entry; tags and fusion partners are left off.
UniProt Q8VII8: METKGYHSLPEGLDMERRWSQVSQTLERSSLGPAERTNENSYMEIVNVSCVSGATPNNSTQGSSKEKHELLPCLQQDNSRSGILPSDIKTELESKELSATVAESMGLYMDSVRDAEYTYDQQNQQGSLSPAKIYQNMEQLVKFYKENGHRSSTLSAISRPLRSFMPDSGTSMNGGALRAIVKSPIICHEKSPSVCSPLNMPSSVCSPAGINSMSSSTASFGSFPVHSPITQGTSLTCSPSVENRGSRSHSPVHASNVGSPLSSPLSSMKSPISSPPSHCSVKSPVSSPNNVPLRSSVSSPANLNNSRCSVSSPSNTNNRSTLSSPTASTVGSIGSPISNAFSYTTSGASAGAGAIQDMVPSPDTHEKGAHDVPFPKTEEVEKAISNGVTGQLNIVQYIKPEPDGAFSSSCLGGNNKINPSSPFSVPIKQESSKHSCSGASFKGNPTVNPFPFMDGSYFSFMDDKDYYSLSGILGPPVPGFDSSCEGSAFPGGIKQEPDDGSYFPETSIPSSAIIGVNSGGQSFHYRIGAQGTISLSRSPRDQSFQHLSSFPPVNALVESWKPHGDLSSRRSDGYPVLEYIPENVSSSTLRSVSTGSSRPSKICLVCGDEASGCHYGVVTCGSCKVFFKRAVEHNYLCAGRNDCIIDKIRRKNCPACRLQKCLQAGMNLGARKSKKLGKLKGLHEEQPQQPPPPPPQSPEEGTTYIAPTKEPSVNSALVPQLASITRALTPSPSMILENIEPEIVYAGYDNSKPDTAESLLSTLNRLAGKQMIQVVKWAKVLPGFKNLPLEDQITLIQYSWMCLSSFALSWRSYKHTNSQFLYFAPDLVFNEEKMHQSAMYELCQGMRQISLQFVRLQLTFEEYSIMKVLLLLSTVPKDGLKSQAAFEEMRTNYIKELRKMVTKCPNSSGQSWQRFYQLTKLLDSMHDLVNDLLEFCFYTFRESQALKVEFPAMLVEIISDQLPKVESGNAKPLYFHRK
UniProt O09106: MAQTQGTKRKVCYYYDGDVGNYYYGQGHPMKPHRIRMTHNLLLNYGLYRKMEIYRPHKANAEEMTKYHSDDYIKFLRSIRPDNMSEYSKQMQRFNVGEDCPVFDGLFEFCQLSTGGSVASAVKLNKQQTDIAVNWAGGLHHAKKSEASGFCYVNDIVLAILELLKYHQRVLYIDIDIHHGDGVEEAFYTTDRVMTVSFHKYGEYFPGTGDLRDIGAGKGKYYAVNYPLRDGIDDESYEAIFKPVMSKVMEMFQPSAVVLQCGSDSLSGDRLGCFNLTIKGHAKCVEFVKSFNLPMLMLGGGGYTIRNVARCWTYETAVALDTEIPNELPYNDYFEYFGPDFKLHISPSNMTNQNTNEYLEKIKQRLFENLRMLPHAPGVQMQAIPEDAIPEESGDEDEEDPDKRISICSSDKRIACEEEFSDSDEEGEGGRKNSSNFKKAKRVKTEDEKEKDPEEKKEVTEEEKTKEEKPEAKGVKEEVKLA
UniProt Q60974: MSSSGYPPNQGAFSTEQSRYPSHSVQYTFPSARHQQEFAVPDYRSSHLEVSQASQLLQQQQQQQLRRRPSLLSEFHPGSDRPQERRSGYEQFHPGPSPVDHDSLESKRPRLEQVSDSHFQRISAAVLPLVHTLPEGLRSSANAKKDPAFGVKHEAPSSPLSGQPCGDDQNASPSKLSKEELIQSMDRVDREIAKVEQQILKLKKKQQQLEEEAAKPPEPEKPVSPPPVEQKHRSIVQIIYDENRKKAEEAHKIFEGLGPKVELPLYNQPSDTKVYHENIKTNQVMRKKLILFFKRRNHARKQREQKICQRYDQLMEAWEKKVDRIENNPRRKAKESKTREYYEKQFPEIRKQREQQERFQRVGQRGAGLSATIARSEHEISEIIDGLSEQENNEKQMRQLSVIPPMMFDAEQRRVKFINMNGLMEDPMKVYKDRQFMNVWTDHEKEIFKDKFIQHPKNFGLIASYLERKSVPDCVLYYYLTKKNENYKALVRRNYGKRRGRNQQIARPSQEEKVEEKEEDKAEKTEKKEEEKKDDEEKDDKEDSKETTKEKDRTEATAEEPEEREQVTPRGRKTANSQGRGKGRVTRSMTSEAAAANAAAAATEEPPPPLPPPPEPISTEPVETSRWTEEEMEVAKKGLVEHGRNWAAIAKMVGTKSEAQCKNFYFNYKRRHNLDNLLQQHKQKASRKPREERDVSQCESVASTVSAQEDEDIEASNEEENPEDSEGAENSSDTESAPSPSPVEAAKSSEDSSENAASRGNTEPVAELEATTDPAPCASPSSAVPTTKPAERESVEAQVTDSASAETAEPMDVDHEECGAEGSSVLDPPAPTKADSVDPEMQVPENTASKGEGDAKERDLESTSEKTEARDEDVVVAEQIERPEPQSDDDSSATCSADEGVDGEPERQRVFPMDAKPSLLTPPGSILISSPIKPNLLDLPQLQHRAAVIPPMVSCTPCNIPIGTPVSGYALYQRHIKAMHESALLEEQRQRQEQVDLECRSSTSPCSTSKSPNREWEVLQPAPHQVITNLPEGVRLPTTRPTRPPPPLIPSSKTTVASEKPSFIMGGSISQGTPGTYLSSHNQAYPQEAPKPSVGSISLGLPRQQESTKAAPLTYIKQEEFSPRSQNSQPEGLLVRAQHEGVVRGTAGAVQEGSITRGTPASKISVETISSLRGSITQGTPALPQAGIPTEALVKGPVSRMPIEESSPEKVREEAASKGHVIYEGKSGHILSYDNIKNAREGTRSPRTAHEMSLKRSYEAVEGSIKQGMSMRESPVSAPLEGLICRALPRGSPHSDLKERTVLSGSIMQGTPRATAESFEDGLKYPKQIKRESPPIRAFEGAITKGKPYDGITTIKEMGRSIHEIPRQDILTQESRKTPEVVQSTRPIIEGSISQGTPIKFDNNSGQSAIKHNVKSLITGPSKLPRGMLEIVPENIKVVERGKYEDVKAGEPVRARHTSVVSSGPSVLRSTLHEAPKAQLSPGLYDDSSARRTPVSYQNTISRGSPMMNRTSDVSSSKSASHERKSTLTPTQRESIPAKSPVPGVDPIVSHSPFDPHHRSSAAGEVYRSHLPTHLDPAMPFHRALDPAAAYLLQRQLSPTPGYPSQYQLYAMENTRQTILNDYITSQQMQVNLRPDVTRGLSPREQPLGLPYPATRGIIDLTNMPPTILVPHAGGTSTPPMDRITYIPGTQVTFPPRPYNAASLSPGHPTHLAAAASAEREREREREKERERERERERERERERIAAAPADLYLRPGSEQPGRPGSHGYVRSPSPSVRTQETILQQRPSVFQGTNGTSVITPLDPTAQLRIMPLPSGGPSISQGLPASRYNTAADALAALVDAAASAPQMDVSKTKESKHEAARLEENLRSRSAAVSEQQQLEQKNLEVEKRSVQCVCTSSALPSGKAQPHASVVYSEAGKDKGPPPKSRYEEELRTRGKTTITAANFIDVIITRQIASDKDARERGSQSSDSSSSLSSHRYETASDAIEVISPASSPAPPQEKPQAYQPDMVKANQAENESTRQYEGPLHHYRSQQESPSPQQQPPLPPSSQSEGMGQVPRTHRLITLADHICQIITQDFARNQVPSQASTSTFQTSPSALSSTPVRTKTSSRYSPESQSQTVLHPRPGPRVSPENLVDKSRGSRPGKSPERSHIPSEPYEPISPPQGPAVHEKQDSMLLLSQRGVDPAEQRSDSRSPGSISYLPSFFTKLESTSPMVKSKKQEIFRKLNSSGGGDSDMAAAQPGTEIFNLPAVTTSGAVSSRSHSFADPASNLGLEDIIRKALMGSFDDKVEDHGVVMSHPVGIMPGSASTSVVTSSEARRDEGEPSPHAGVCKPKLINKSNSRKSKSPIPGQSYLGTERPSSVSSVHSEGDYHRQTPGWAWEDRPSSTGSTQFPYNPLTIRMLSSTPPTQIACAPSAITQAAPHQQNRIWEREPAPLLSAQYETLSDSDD

Molecular target: flagMR (FLAG-tagged mineralocorticoid receptor, nuclear receptor subfamily 3 group C member 2) (UniProt Q8VII8)
Assay: co-IP; lysates of primary hepatocytes from wild-type mice infected with AdV-flagMR; IP lysis buffer with protease inhibitor cocktail; primary antibody or normal IgG overnight at 4°C, protein A/G beads 4 hours at 4°C; Western blotting

| binding | Molecule |
| --- | --- |
| no binding | HDAC1 (from UniProt O09106 1-482) (enzyme) |
| binds | Nuclear receptor corepressor 1 (NCOR1) (from UniProt Q60974 1-2453) |
| no binding | HDAC6 (enzyme, UniProt Q9Z2V5 1-1149) MTSTGQDSSTRQRKSRHNPQSPLQESSATLKRGGKKCAVPHSSPNLAEVKKKGKMKKLSQPAEEDLVVGLQGLDLNPETRVPVGTGLVFDEQLNDFHCLWDDSFPESPERLHAIREQLILEGLLGRCVSFQARFAEKEELMLVHSLEYIDLMETTQYMNEGELRVLAETYDSVYLHPNSYSCACLATGSVLRLVDALMGAEIRNGMAVIRPPGHHAQHNLMDGYCMFNHLAVAARYAQKKHRIQRVLIVDWDVHHGQGTQFIFDQDPSVLYFSIHRYEHGRFWPHLKASNWSTIGFGQGQGYTINVPWNQTGMRDADYIAAFLHILLPVASEFQPQLVLVAAGFDALHGDPKGEMAATPAGFAHLTHLLMGLAGGKLILSLEGGYNLRALAKGVSASLHTLLGDPCPMLESCVVPCASAQTSIYCTLEALEPFWEVLERSVETQEEDEVEEAVLEEEEEEGGWEATALPMDTWPLLQNRTGLVYDEKMMSHCNLWDNHHPETPQRILRIMCHLEEVGLAARCLILPARPALDSELLTCHSAEYVEHLRTTEKMKTRDLHREGANFDSIYICPSTFACAKLATGAACRLVEAVLSGEVLNGIAVVRPPGHHAEPNAACGFCFFNSVAVAARHAQIIAGRALRILIVDWDVHHGNGTQHIFEDDPSVLYVSLHRYDRGTFFPMGDEGASSQVGRDAGIGFTVNVPWNGPRMGDADYLAAWHRLVLPIAYEFNPELVLISAGFDAAQGDPLGGCQVTPEGYAHLTHLLMGLAGGRIILILEGGYNLASISESMAACTHSLLGDPPPQLTLLRPPQSGALVSISEVIQVHRKYWRSLRLMKMEDKEECSSSRLVIKKLPPTASPVSAKEMTTPKGKVPEESVRKTIAALPGKESTLGQAKSKMAKAVLAQGQSSEQAAKGTTLDLATSKETVGGATTDLWASAAAPENFPNQTTSVEALGETEPTPPASHTNKQTTGASPLQGVTAQQSLQLGVLSTLELSREAEEAHDSEEGLLGEAAGGQDMNSLMLTQGFGDFNTQDVFYAVTPLSWCPHLMAVCPIPAAGLDVSQPCKTCGTVQENWVCLTCYQVYCSRYVNAHMVCHHEASEHPLVLSCVDLSTWCYVCQAYVHHEDLQDVKNAAHQNKFGEDMPHSH |
